The values below come from paper PMC12790717.

Chains of the proteins cited; added tags and fusions are not shown.
UniProt P51608: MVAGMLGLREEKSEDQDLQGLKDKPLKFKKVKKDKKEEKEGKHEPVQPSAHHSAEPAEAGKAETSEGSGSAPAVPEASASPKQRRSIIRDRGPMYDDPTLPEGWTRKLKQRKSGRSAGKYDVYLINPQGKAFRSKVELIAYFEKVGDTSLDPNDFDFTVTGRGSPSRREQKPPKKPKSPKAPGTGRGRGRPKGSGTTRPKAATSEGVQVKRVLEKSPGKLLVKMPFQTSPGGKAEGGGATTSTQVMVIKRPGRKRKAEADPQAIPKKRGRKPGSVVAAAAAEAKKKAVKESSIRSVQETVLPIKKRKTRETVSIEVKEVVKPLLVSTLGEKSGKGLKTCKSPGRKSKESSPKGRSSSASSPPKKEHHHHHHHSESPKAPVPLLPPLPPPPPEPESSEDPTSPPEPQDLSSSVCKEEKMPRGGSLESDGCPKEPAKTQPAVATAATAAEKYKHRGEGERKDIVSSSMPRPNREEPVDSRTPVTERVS
UniProt P09874: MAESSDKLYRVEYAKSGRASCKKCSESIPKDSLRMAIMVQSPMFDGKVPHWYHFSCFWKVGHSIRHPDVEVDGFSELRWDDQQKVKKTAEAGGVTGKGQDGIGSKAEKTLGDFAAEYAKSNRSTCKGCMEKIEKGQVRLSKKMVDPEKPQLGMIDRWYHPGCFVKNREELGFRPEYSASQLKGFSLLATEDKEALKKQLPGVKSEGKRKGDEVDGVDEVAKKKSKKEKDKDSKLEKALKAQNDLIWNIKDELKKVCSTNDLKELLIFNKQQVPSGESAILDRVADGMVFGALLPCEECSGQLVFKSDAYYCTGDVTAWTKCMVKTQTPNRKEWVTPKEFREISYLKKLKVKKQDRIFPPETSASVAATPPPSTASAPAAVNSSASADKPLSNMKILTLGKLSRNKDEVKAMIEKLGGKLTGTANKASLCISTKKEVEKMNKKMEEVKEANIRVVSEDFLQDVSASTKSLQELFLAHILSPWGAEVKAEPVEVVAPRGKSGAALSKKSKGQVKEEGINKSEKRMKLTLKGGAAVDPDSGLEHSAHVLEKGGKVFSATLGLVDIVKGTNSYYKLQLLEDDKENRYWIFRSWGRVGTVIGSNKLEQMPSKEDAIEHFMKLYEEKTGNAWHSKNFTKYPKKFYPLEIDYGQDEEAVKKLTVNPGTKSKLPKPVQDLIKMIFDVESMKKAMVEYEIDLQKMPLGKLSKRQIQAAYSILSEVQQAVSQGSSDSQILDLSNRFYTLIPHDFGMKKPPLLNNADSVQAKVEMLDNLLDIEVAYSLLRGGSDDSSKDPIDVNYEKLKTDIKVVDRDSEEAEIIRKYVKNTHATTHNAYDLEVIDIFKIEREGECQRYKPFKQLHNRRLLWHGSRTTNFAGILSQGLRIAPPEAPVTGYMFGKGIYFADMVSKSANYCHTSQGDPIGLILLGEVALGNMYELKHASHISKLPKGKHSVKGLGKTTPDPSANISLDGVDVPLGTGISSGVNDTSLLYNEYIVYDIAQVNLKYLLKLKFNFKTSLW
UniProt P13010: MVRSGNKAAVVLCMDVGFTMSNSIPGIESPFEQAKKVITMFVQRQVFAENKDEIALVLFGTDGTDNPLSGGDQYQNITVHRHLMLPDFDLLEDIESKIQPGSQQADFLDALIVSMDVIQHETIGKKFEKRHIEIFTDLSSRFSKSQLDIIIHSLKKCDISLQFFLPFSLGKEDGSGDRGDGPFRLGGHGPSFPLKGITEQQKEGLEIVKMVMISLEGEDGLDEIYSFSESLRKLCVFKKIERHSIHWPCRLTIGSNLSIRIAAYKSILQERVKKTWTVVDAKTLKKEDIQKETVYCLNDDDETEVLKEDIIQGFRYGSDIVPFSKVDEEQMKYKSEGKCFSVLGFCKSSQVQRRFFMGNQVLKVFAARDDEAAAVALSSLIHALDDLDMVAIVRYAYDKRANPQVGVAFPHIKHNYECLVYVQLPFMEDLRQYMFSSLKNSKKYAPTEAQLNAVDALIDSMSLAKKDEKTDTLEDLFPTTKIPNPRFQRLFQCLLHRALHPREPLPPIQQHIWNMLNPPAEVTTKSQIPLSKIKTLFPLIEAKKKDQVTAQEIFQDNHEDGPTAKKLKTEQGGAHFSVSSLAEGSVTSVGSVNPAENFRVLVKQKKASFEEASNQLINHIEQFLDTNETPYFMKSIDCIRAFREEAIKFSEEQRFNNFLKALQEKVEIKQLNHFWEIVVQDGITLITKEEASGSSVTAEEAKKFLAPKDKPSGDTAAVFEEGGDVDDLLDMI
UniProt Q16531: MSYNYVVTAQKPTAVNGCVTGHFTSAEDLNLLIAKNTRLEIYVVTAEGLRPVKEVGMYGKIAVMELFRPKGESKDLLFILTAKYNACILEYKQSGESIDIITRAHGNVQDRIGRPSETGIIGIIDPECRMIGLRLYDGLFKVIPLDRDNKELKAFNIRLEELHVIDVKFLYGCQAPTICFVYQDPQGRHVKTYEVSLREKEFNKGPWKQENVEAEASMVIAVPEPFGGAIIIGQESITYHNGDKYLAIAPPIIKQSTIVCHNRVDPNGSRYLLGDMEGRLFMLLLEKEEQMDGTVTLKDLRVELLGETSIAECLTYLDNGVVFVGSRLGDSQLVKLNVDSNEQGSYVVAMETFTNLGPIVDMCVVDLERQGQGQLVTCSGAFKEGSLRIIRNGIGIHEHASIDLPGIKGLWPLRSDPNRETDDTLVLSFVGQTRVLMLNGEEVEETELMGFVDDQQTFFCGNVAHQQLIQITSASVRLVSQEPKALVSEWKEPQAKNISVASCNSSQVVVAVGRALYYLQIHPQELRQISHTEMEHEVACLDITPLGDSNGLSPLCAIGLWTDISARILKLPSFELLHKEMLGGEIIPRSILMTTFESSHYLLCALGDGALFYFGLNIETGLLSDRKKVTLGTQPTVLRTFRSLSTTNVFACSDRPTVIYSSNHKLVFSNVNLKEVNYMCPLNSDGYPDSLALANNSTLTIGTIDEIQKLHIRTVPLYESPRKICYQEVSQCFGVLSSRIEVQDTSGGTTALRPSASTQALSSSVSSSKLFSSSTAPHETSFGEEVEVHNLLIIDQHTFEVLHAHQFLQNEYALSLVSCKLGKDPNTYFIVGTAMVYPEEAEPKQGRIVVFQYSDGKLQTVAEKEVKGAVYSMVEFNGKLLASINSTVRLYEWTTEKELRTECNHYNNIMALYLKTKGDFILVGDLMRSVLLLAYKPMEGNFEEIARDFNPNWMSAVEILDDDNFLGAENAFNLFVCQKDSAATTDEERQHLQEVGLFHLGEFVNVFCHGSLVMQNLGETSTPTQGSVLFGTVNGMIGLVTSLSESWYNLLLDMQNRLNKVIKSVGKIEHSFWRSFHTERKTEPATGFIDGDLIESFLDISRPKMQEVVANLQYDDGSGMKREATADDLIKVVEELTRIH
UniProt P11387: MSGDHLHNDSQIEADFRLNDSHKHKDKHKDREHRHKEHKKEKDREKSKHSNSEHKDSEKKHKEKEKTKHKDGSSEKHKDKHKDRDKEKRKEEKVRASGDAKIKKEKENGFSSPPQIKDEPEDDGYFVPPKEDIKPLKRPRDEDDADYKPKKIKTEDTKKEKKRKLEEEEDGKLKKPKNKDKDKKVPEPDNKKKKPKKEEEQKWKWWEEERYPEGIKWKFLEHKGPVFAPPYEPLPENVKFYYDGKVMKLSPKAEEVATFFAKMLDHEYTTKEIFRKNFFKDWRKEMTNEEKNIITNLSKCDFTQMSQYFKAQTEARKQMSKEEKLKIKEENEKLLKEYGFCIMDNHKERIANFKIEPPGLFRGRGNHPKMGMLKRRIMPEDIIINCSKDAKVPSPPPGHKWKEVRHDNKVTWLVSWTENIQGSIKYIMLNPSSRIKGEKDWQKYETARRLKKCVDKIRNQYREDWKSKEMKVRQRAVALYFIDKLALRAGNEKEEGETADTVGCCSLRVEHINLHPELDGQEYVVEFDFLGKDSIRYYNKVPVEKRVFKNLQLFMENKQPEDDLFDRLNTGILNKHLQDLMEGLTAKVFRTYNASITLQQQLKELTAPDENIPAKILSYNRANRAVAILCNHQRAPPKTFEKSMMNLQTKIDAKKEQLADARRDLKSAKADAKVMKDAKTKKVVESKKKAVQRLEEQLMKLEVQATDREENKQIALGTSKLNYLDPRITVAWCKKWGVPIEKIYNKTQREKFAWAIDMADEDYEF

No constants are given. Whether binding was seen depends on the method and setting. Binding seen in cells or lysates may run through a third protein. A yes stands for co-enrichment or nearness to the bait. Other partners may have been found.

For test [1], the target named is Methyl-CpG-binding protein 2 (MECP2) (human (endogenous in hiPSC-derived neurons)) (UniProt P51608). The test is described as follows: affinity purification with mass spectrometry; IP with an MECP2 antibody from nuclei of two wild-type neuronal lines (R16/R18); compared with samples without antibody and with nuclei from neurons lacking MECP2.
The target of test [2] is PARP1 (human (endogenous in hiPSC-derived neurons)) (UniProt P09874). The test can be described thus: affinity purification with mass spectrometry; PARP1 antibody used to pull down PARP1 as bait from nuclear lysate of human neurons; compared with the minus antibody condition.

In the case of “PARP1 (from UniProt P09874 1-1014) (enzyme)”, in test [1], the binding entry was “binds”.

Take XRCC5 (from UniProt P13010 1-732): the binding result in test [1] was “binds”. As to “Methyl-CpG-binding protein 2 (MECP2) (from UniProt P51608 1-486)”, in test [2], the binding result is given as “binds”. Turning to DDB1 (from UniProt Q16531 1-1140), in test [1], the binding result is on record as “binds”.

With “TOP1 (from UniProt P11387 1-765) (enzyme)”, the binding result in test [1] is “binds”.
